From publication PMC4324908 come the findings set out here.

No constants are given. Whether binding was seen depends on the method and setting. Binding seen in cells or lysates may run through a third protein. Some results given as binding are weak or reduced against the parent protein; the word gives no strength. Where a sequence is shown, tags or fusion partners need not be part of it.

This assay addresses T1, GFP-fused rat Hap1B (pEGFP-rHap1B) (rat) (UniProt P54256).
T1 sequence: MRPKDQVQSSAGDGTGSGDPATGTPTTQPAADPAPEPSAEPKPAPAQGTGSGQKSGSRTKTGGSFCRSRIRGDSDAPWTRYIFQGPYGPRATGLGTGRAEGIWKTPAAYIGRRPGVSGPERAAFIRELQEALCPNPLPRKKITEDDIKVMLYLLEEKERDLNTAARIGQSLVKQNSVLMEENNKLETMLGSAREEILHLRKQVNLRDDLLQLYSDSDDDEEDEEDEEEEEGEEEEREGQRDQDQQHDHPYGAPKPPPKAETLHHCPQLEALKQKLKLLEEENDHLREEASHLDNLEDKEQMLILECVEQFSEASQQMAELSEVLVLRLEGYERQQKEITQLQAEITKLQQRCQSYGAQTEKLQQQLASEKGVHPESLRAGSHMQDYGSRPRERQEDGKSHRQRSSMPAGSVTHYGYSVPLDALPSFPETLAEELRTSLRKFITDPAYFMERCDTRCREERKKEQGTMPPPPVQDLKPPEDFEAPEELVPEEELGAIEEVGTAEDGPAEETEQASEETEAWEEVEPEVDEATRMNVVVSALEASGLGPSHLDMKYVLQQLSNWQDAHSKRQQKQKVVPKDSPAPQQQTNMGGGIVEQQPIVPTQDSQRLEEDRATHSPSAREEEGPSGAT
As to the kind of experiment: co-IP; lysates of neuro-2a cells co-transfected with Bcr-myc and GFP, GFP-Hap1A or GFP-Hap1B; anti-GFP antibody on protein A magnetic beads, overnight at 4 C, 50 mM PIPES pH 6.8, 1 mM EGTA, 1 mM MgSO4; washed with 0.1% NP-40; immunoblot with anti-Bcr and anti-GFP. (In general: In western blotting, separated proteins are transferred to a membrane and probed.)

B1: myc-tagged mouse Bcr (pCMV6-mBcr-myc, OriGene) (protein, UniProt Q6PAJ1 1-1270)
chain: MVDSVGFAEAWRAQFPDSEPPRMELRSVGDIEQELERCKASIRRLEQEVNQERFRMIYLQTLLAKEKKSYDRQRWGFRRAAQPPDGAAEPRASAPRPPPAPADGADPAPVEESEARPDGEGSPSKGRSASARRPAAAASADRDDRGPPTSVAALRSNFEKIRKGPAQPGSADAEKPFYVNVEFHHERGLVKVNDKEVSDRISSLGSQAMQMERKKSQQSAGQGLGEAPRPHYRGRSSESSCGLDGDYEDAELNPRFLKDNLINANGGNRPPWPPLEYQPYQSIYVGGMMVEGEGKSPLLRSQSTSEQEKRLTWPRRSYSPRSFEDSGGGYTPDCSSNENLTSSEEDFSSGQSSRVSPSPTTYRMFRDKSRSPSQNSQQSFDSSSPPTPQCQKRHRQCQVVVSEATIVGVRKTGQIWPSDGDSTFQGEADSSFGTPPGYGCAADQAEEQRRHQDGLPYIDDSPSSSPHLSSKGRGSLASGALDPTKVSELDLEKGLEMRKWVLSGILASEETYLSHLEALLLPMKPLKAAATTSQPVLTSQQIETIFFKVPELYEIHKEFYDGLFPRVQQWSHQQRVGDLFQKLASQLGVYRAFVDNYGVAMETAEKCCQANAQFAEISENLRARSNKDVKDSTTKNSLETLLYKPVDRVTRSTLVLHDLLKHTPSSHPDHSLLQDALRISQNFLSSINEEITPRRQSMTVKKGEHRQLLKDSFMVELVEGARKLRHIFLFTDLLLCTKLKKQSGGKTQQYDCKWYIPLTDLSFQMVDELEALPNIPLVPDEELDALKIKISQIKSDIQREKRANKGSKVMERLRKKLSEQESLLLLMSPSMAFRVHSRNGKSYTFLISSDYERAEWRESIREQQKKCFKSFSLTSVELQMLTNSCVKLQTVHHIPLTINKEDDESPGLYGFLHVIVHSATGFKQSSNLYCTLEVDSFGYFVNKAKTRVYRDTTEPNWNEEFEIELEGSQTLRILCYEKCYNKMKMTKEDGESADKLMGKGQVQLDPQTLQDRDWQRTVIDMNGIEVKLSVKFTSREFSLKRMPSRKQTGVFGVKIAVVTKRERSKVPYIVRQCVEEIERRGMEEVGIYRVSGVATDIQALKAAFDVNNKDVSVMMSEMDVNAIAGTLKLYFRELPEPLFTDEFYPNFAEGIALSDPVAKESCMLNLLLSLPEANLLTFLFLLDHLKRVAEKETVNKMSLHNLATVFGPTLLRPSEKESKLPANPSQPITMTDSWSLEVMSQVQVLLYFLQLEAIPAPDSKRQSILFSTEV
Regarding B1, the binding entry is recorded as “binds”.
